Reference: PMC9098449
The exact form of at least one protein or probe is not confirmed. No signal at the amounts used counts as a negative.

Tested on: E. coli RNA polymerase (his-tagged), sigma70 used for initiation (Escherichia coli)
Assay: pull-down (Ni-NTA, transcript retention after wash)
Details: 10 mM Mg2+, 700 mM KCl wash, Transcription: 20 mM Tris-HCl pH 8.0, 20 mM MgCl2, 20 mM NaCl, 0.1 mM EDTA, 37 °C, Ni-NTA wash: 40 mM Tris pH 8.0, 10 mM MgCl2, 700 mM KCl, recombinant protein, letters put together from the description

Row | Sequence | binding result (run-off control without roadblock, label: 32P) | binding result (NPOM-stalled elongation complex, NPOM-caged dT at position 8 of strand 2 (opposite A90 of transcript numbering), label: nascent RNA 32P-labelled)
1 | GUUCAAACCUCAACGGGGUGCCACGCGUACGCGUGCGCUGAGAAAAUACCCGUCGAACCUGAUCCGGAUAACGCCGGCGAAGGGAUUUGAGGCUCCU [tbpA +5 run-off transcript (no roadblock)] | no binding | 
2 | GGGCACCCCAGGCTTTACACTTTATGCTTCCGGCTCGTATAATGTGTGGGTTCAAACCTCAACGGGGTGCCACGCGTACGCGTGCGCTGAGAAAATACCCGTCGAACCTGATCCGGATAACGCCGGCGAAGGGATTTGAGGCTCCT (double strand) |  | binds
